Results of single-concentration screens

Mtb glucose medium: 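Phenotypic screen: M. tuberculosis growth, glucose 7H9 medium, 3 days; the read-out is not stated. Compounds at 50 µM. Direction is inferred from retests: higher values go with more growth inhibition. Of about 69,000 compounds tested this way, about 760 (1.1%) reached 50% or more in at least one test.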
Mtb cholesterol medium: 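Phenotypic screen: M. tuberculosis growth, cholesterol and DPPC medium, 4 days; the read-out is not stated. Tested at 50 µM. Higher reads as more growth inhibition (inferred: compounds with an IC50 in retests scored well above the rest). Size under these conditions: about 69,000 compounds, about 370 of them at 50% or above in at least one test.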

Each number is a percent effect as filed.
How 0% and 100% were set is not recorded. Most values in the screen are low, and negative values occur.
This is an unselected part of the compounds tested.
Two or more numbers in one place are separate tests of the same structure; such repeats can differ widely.

| # | structure | Mtb glucose medium | Mtb cholesterol medium |
|---|---|---|---|
| 1 | `CS(=O)(=O)Cc1noc(CN2CCN(c3ccccc3Cl)CC2)n1` | -2.915% | -9.921% |
| 2 | `Cc1cs/c(=N\C(=O)Cn2nc(N3CCC(C)CC3)ccc2=O)[nH]1` | 7.886% and -8.559% | 15.59% |
| 3 | `Cc1cnn(CCNCc2ccc(F)cc2Cl)c1` | -5.325% | -3.393% |
| 4 | `CC(C)c1cc(C(=O)N2CCC3(CCc4ccccc4C(=O)N3)C2)on1` (stereo not shown) | 9.225% | 4% and 5.907% |
| 5 | `CCn1c(CN2CCN(CCOC)CC2)nc2c(F)cccc21` | 9.73% | -7.147% |
| 6 | `COCC(=O)N1CCC(c2c(C(=O)N(C)C)sc3ncccc23)C1` (stereo not shown) | 10.37% | -24.66% and -17.35% |
| 7 | `O=C(O)C(F)(F)F.[H][C@@]12COC[C@]1([H])[C@H](NC(=O)c1cccn1C)CN2Cc1ccsc1` | -2.648% and 33.13% | -23.34% |
| 8 | `O=C(O)CC(O)(CC(=O)O)C(=O)O.OC1CCN(Cc2ccnc(-c3cccnc3)n2)CC1` | 13.54% | -11.5% |
| 9 | `NC(=O)C1CN(c2ncnc3c2Cc2ccccc2OC3)CCO1` (stereo not shown) | -6.919% and 0.9646% | 4.557% |
| 10 | `CCc1nccn1C1CCCN(C(=O)c2ccc3[nH]c(=O)[nH]c3c2)C1` (stereo not shown) | -3.058% | -5.838% |
| 11 | `Cn1cc(-c2ccnc(NCC3CC3)n2)cn1` | 12.34% and 41.36% | 7.519% |
| 12 | `COc1ccccc1Oc1cncc(C2CCCN(CC(N)=O)C2)n1` (stereo not shown) | -10.73% | 14.69% |
| 13 | `CCc1nc(CCNS(=O)(=O)c2cccc(C(=O)N(C)CC)c2)cs1` | -12.45% and -0.8798% | -14.59% |
| 14 | `CCc1n[nH]c(C2CN(C(=O)c3ncoc3CC)CCO2)n1` (stereo not shown) | -0.2977% | -19.69% |
| 15 | `O=C(O)C(F)(F)F.c1csc(CN2CCc3nnc(COc4cncnc4)n3CC2)c1` | -20.92% | -17.93% |
| 16 | `CCCc1nc(C)cc(NC(C)Cc2cnccn2)n1` (stereo not shown) | -3.187% and -9.26% | 5.098% |
| 17 | `CCOc1ccccc1C(CC(=O)Nc1ccccc1F)NC(C)=O` (stereo not shown) | -28.57% | -11.74% |
| 18 | `Cc1cc(C)c(CNC(=O)NCc2ccc3c(c2)OCCO3)c(=O)[nH]1` | 3.389% and -24.75% | 15.45% |
| 19 | `CCN(CC)S(=O)(=O)c1ccc(CNC(=O)N2CCC(C#N)CC2)cc1` | 21.27% | 10.53% and -9.515% |
| 20 | `O=C(O)c1sccc1Oc1ccc(NC(=O)C2CC2)cc1` | 2.046% and 30.91% | 5.373% |
| 21 | `COc1nc(C)ccc1CNc1cc(N2CCCC2CO)ncn1` (stereo not shown) | -9.619% | -6.62% |
| 22 | `O=C(c1cc(F)ccc1F)C1CCN(C(=O)c2ccccn2)CC1` | 13% | 1.989% |
| 23 | `Cc1nc(CN(C)C2CCN(Cc3ccc4c(c3)CCC4)C2)no1` (stereo not shown) | 16.87% | 7.104% |
| 24 | `[H][C@@]12CN(C(=O)CCO)C[C@]1([H])C(=O)N(c1ccccc1)C2` | 14.5% | -11.69% |
| 25 | `Cc1nnc(NC(=O)NC2CCOc3ccccc32)s1` (stereo not shown) | -4.484% | -19.19% |
| 26 | `Cc1ccc(S(=O)(=O)N2CCC(S(=O)(=O)c3nncn3C)CC2)cc1C` | -15.77% | -8.859% |
| 27 | `CN(C1CCN(c2ccccn2)CC1)S(=O)(=O)c1cccs1` | 31.7% | 3.945% |
| 28 | `CN1CCCC1c1cccc(Cc2ccccc2F)n1` (stereo not shown) | 53.31% | 22.66% |
| 29 | `Cc1ncc(CNC(=O)CCOc2ccccc2)c(C2CCCN2C)n1` (stereo not shown) | 11.55% | -4.584% |
| 30 | `COc1nc2c(cc1C(=O)NCCCc1csc(N)n1)CCC2` | 20.03% | 7.46% |
| 31 | `O=C(c1ccco1)N1CCCC(c2cc(C(F)(F)F)[nH]n2)C1` (stereo not shown) | 35.14% | -3.936% |
| 32 | `Cn1c(=O)oc2cc(S(=O)(=O)N3CCC(c4ccccc4)C3)c(Cl)cc21` (stereo not shown) | -12.08% | -6.924% |
| 33 | `Cc1cc(C)c(NC(=O)Nc2cnn(CC(O)CN(C)C)c2)c(C)c1` (stereo not shown) | -25.03% | 15.08% |
| 34 | `CCOC(C)c1nc(CN2CCC(CNC(C)=O)CC2)cs1` (stereo not shown) | -8.924% | 18.86% |
| 35 | `O=C(C(c1ccccc1)N1CCc2cncnc2C1)N1CCCCC1` (stereo not shown) | -72.09% | -14.05% |
| 36 | `Cc1ccc(S(=O)(=O)NCCNC(=O)c2cncnc2C)cc1` | -18% | 6.085% |
| 37 | `Cc1cc(C)c(C(=O)N(C)CCN(C)C(=O)OC(C)(C)C)[nH]1` | -31.34% | -6.926% |
| 38 | `CC(Cn1cccn1)NC(=O)N1CCN(Cc2cccnc2)CC1` (stereo not shown) | 13.23% | -8.39% |
| 39 | `CC(C)Oc1ncccc1CNC(=O)N1CCCC1c1ccsc1` (stereo not shown) | -6.614% | -11.14% |
| 40 | `CSc1[nH]nc(NC(=O)c2cccs2)c1C#N` | -13.33% | -24.4% |
| 41 | `CCCS(=O)(=O)N1CCC2(CCCN(c3ncc(F)cn3)C2)C1` (stereo not shown) | -21.76% and 1.442% | -12.43% |

Repeated from the top, 5 entries:

- CS(=O)(=O)Cc1noc(CN2CCN(c3ccccc3Cl)CC2)n1 | Mtb glucose medium: -2.915%; Mtb cholesterol medium: -9.921%
- Cc1cs/c(=N\C(=O)Cn2nc(N3CCC(C)CC3)ccc2=O)[nH]1 | Mtb glucose medium: 7.886% and -8.559%; Mtb cholesterol medium: 15.59%
- Cc1cnn(CCNCc2ccc(F)cc2Cl)c1 | Mtb glucose medium: -5.325%; Mtb cholesterol medium: -3.393%
- CC(C)c1cc(C(=O)N2CCC3(CCc4ccccc4C(=O)N3)C2)on1 (stereo not shown) | Mtb glucose medium: 9.225%; Mtb cholesterol medium: 4% and 5.907%
- CCn1c(CN2CCN(CCOC)CC2)nc2c(F)cccc21 | Mtb glucose medium: 9.73%; Mtb cholesterol medium: -7.147%

Data taken from ChEMBL document CHEMBL3988442, “University of Dundee, Small-Polar-MMV Screening Library” (2021).